Data from patent US9868714B2, “Pyrone compounds and herbicides comprising the same” (SUMITOMO CHEMICAL COMPANY, LIMITED, priority 2012, dated 2018).
Some of these results come from one statement about several compounds together.

How the values were obtained:
Type in all cases: in vivo
Echinochloa crus-galli [1] = assay: Test 1-1 post-emergence treatment test; conditions: 1,000g/10,000 m^2; sprayed on whole plants at 1-2 leaf stages; after 20 days of the treatment; greenhouse
Echinochloa crus-galli [2] = assay: Test 2-1 pre-emergence treatment test; conditions: 1,000g/10,000 m^2; sprayed on the soil surface after sowing; after 3 weeks of the spraying; greenhouse
Galium aparine = assay: Test 1-2 post-emergence treatment test; conditions: 1,000g/10,000 m^2; sprayed on whole plants at 1-2 leaf stages; after 20 days of the treatment; greenhouse

SMILES: CCc1cc(C)cc(CC)c1-c1c(O)cc(CCSc2ccc(C(F)(F)F)cc2)oc1=O [Compound 1-1]
- efficacy for controlling weeds, visually observed, 11 criteria of 0 to 10 (Echinochloa crus-galli [1]): ≥ 9
- efficacy for controlling weeds, visually observed, 11 criteria of 0 to 10 (Echinochloa crus-galli [2]): ≥ 7

SMILES: Cc1cc(C)c(-c2c(O)cc(CCSc3ccc(C(F)(F)F)cn3)oc2=O)c(C)c1 [Compound 1-4, 4-hydroxy-3-mesityl-6-(2-(5-(trifluoromethyl)pyridin-2-ylthio)ethyl)-2H-pyran-2-one]
- efficacy for controlling weeds, visually observed, 11 criteria of 0 to 10 (Echinochloa crus-galli [1]): ≥ 9

SMILES: Cc1cc(C)c(-c2c(O)cc(CCSc3ccccc3)oc2=O)c(C)c1 [Compound 1-5, 4-hydroxy-3-mesityl-6-(2-(phenylthio)ethyl)-2H-pyran-2-one]
- efficacy for controlling weeds, visually observed, 11 criteria of 0 to 10 (Echinochloa crus-galli [1]): ≥ 9

SMILES: Cc1cc(C)c(-c2c(O)cc(CCSc3ccc(Cl)cc3)oc2=O)c(C)c1 [Compound 1-8, 6-(2-(4-chlorophenylthio)ethyl)-4-hydroxy-3-mesityl-2H-pyran-2-one]
- efficacy for controlling weeds, visually observed, 11 criteria of 0 to 10 (Echinochloa crus-galli [1]): ≥ 9

SMILES: Cc1cc(C)c(-c2c(O)cc(CCSc3ccc(F)cc3)oc2=O)c(C)c1 [Compound 1-9, 6-(2-(4-fluorophenylthio)ethyl)-4-hydroxy-3-mesityl-2H-pyran-2-one]
- efficacy for controlling weeds, visually observed, 11 criteria of 0 to 10 (Echinochloa crus-galli [1]): ≥ 9

SMILES: CCc1cc(C)cc(CC)c1-c1c(O)cc(C(C)CSc2ccc(C(F)(F)F)cc2)oc1=O (stereo not drawn) [Compound 1-10]
- efficacy for controlling weeds, visually observed, 11 criteria of 0 to 10 (Echinochloa crus-galli [1]): ≥ 9
- efficacy for controlling weeds, visually observed, 11 criteria of 0 to 10 (Echinochloa crus-galli [2]): ≥ 7

SMILES: Cc1cc(C)c(-c2c(O)cc(C(C)CSc3ccc(C(F)(F)F)cc3)oc2=O)c(C)c1 (stereo not drawn) [Compound 1-11]
- efficacy for controlling weeds, visually observed, 11 criteria of 0 to 10 (Echinochloa crus-galli [1]): ≥ 9
- efficacy for controlling weeds, visually observed, 11 criteria of 0 to 10 (Galium aparine): ≥ 7
- efficacy for controlling weeds, visually observed, 11 criteria of 0 to 10 (Echinochloa crus-galli [2]): ≥ 7

SMILES: CCc1cc(C)cc(CC)c1-c1c(O)cc(C(C)CSc2ccc(C(F)(F)F)cn2)oc1=O (stereo not drawn) [Compound 1-12]
- efficacy for controlling weeds, visually observed, 11 criteria of 0 to 10 (Echinochloa crus-galli [1]): ≥ 9
- efficacy for controlling weeds, visually observed, 11 criteria of 0 to 10 (Echinochloa crus-galli [2]): ≥ 7

SMILES: Cc1cc(C)c(-c2c(O)cc(CCCSc3ccc(C(F)(F)F)cc3)oc2=O)c(C)c1 [Compound 1-25, 4-hydroxy-3-mesityl-6-(3-(4-(trifluoromethyl)phenylthio)propyl)-2H-pyran-2-one]
- efficacy for controlling weeds, visually observed, 11 criteria of 0 to 10 (Echinochloa crus-galli [1]): ≥ 9

SMILES: Cc1cc(C)c(-c2c(O)cc(CCSc3cccc(F)c3)oc2=O)c(C)c1 [Compound 1-27, 6-(2-(3-fluorophenylthio)ethyl)-4-hydroxy-3-mesityl-2H-pyran-2-one]
- efficacy for controlling weeds, visually observed, 11 criteria of 0 to 10 (Echinochloa crus-galli [1]): ≥ 9

SMILES: Cc1cc(C)c(-c2c(O)cc(CCSc3ccc(F)c(F)c3)oc2=O)c(C)c1 [Compound 1-28, 6-(2-(3,4-difluorophenylthio)ethyl)-4-hydroxy-3-mesityl-2H-pyran-2-one]
- efficacy for controlling weeds, visually observed, 11 criteria of 0 to 10 (Echinochloa crus-galli [1]): ≥ 9

SMILES: Cc1cc(C)c(-c2c(O)cc(CCSc3cc(F)cc(F)c3)oc2=O)c(C)c1 [Compound 1-29, 6-(2-(3,5-difluorophenylthio)ethyl)-4-hydroxy-3-mesityl-2H-pyran-2-one]
- efficacy for controlling weeds, visually observed, 11 criteria of 0 to 10 (Echinochloa crus-galli [1]): ≥ 9

SMILES: Cc1cc(C)c(-c2c(O)cc(CCSc3ccc(OC(F)(F)F)cc3)oc2=O)c(C)c1 [Compound 1-31, 4-hydroxy-3-mesityl-6-(2-(4-(trifluoromethoxy)phenylthio)ethyl)-2H-pyran-2-one]
- efficacy for controlling weeds, visually observed, 11 criteria of 0 to 10 (Echinochloa crus-galli [1]): ≥ 9

SMILES: Cc1cc(C)c(-c2c(O)cc(CCSc3ccc(S(F)(F)(F)(F)F)cc3)oc2=O)c(C)c1 [Compound 1-58, 6-(2-(4-mercaptopentafluorophenylthio)ethyl)-4-hydroxy-3-mesityl-2H-pyran-2-one]
- efficacy for controlling weeds, visually observed, 11 criteria of 0 to 10 (Echinochloa crus-galli [1]): ≥ 9

SMILES: Cc1cc(C)c(-c2c(O)cc(CCSc3ccc(I)cc3)oc2=O)c(C)c1 [Compound 1-59, 4-hydroxy-6-(2-(4-iodophenylthio)ethyl)-3-mesityl-2H-pyran-2-one]
- efficacy for controlling weeds, visually observed, 11 criteria of 0 to 10 (Echinochloa crus-galli [1]): ≥ 9

SMILES: Cc1cc(C)c(-c2c(O)cc(CCSc3ccc(Br)cc3)oc2=O)c(C)c1 [Compound 1-60, 6-(2-(4-bromophenylthio)ethyl)-4-hydroxy-3-mesityl-2H-pyran-2-one]
- efficacy for controlling weeds, visually observed, 11 criteria of 0 to 10 (Echinochloa crus-galli [1]): ≥ 9

SMILES: Cc1cc(C)c(-c2c(O)cc(C(C)C[S+]([O-])c3ccc(C(F)(F)F)cc3)oc2=O)c(C)c1 (stereo not drawn) [Compound 1-63]
- efficacy for controlling weeds, visually observed, 11 criteria of 0 to 10 (Galium aparine): ≥ 7
- efficacy for controlling weeds, visually observed, 11 criteria of 0 to 10 (Echinochloa crus-galli [2]): ≥ 7

SMILES: Cc1cc(C)c(-c2c(O)cc(CCSc3cccs3)oc2=O)c(C)c1 [Compound 1-84, 4-hydroxy-3-mesityl-6-(2-(p-tolylthio)ethyl)-2H-pyran-2-one]
- efficacy for controlling weeds, visually observed, 11 criteria of 0 to 10 (Echinochloa crus-galli [1]): ≥ 9

SMILES: CCc1cc(C)cc(CC)c1-c1c(O)cc(C(C)C[S+]([O-])c2ccc(C(F)(F)F)cc2)oc1=O (stereo not drawn) [Compound 1-97]
- efficacy for controlling weeds, visually observed, 11 criteria of 0 to 10 (Echinochloa crus-galli [1]): ≥ 9
- efficacy for controlling weeds, visually observed, 11 criteria of 0 to 10 (Echinochloa crus-galli [2]): ≥ 7

SMILES: Cc1cc(C)c(-c2c(O)cc(CCSc3nncs3)oc2=O)c(C)c1 [Compound 1-103]
- efficacy for controlling weeds, visually observed, 11 criteria of 0 to 10 (Echinochloa crus-galli [1]): ≥ 9
